# Experimental data published in publication PMC7819943, “Rice protein-binding microarrays: a tool to detect cis-acting elements near promoter regions in rice”.
# By UniProt entry, the sequences of proteins in these tests, tags left out.
# UniProt Q0JBA9, entry or part of it: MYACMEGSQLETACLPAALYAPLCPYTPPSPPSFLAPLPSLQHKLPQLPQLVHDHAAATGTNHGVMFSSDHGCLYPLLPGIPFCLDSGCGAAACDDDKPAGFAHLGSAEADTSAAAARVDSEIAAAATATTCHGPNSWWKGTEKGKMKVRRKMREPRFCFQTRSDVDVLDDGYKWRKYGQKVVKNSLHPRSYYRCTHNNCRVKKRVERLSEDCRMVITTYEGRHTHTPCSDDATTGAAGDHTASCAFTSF
# Some of the results follow.
# Molecular target: OsWRKY34 (Oryza sativa, UniProt Q0JBA9 1-250)
# Assay: protein-binding microarray (RPBM); PBS, 2% BSA, 51.3 ng/ul salmon testes DNA, 50 uM zinc acetate, 200 nM TF, 25 C, 1 h; high values mean tight binding
# Conditions: protein: recombinant; tags: N-terminal polyhistidine and DsRed monomer fusion (pET32a); label: CyDye5-dUTP incorporated in the synthesized complementary strand; 3' TTTTT single-stranded linker to array surface; dsDNA, one strand shown
# Summary of the method: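 Binding signal is defined as the fluorescence intensity of each feature in arbitrary units, read on an Axon 4000B scanner. Transcription factors with N-terminal polyhistidine and DsRed fusions came from E. coli BL21-CodonPlus and were purified on Ni–NTA. They were incubated at 200 nM for 1 h at 25 °C on a custom Agilent array that had been made double-stranded with Cy5-dUTP, with 50 µM zinc acetate present, and the array was washed.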
row,Sequence,binding signal
1,ACACGTCATGCTTCTCCTCTCTCTCTTTGTCCTTGCATAGCGGAGTCACCTAGTGCAG,10800 fluorescence intensity (a.u.)
2,ATTAATTAGGGGTATTTTGGTTCTTTTATATTCACCTCGACGGAGTCACCTAGTGCAG,9260 fluorescence intensity (a.u.)
3,TATTGGTTTTTTCTGAGCGCCCATGACGACCGGAACACGTCGGAGTCACCTAGTGCAG,8160 fluorescence intensity (a.u.)
4,GAGCAGCATAAAATCCACCTCTCCGATGTCACTGCTTTCCCGGAGTCACCTAGTGCAG,8020 fluorescence intensity (a.u.)
5,AGATTCCGCTTCCATTTCCACCAACCGCGCAAGATACAGGCGGAGTCACCTAGTGCAG,8150 fluorescence intensity (a.u.)
6,AACGAGACAAACGACAGCACGCTTCCTCTTCTGCACCTACCGGAGTCACCTAGTGCAG,8870 fluorescence intensity (a.u.)
7,GGCTATCGTATACACTTGCAAGTACATAATTTATTTTTATCGGAGTCACCTAGTGCAG,8340 fluorescence intensity (a.u.)
8,ACCTTATCATCTCTCCATTCGCCATCGAGCCCGCCGGAGGCGGAGTCACCTAGTGCAG,8070 fluorescence intensity (a.u.)
9,CTAAAGTTAAGTCACTGATGTAAACACCACCTTTGTCTCTCGGAGTCACCTAGTGCAG,8570 fluorescence intensity (a.u.)
10,GAACATCGCGACCGTCCGTGTCTTGATCGGACGTTTCAGACGGAGTCACCTAGTGCAG,9620 fluorescence intensity (a.u.)
11,CAGCCATCGCCTCCCCGACTCCCGTCGTTGTCCACCCCGTCGGAGTCACCTAGTGCAG,8260 fluorescence intensity (a.u.)
12,CTGCTAATCACGTTTTAGTTCGAATTAATGCCATCCACTCCGGAGTCACCTAGTGCAG,8030 fluorescence intensity (a.u.)
13,CACCGTTGTTTGCATACTCCCACTGTCCCACATCTCATCGCGGAGTCACCTAGTGCAG,14200 fluorescence intensity (a.u.)
14,AACTTTATTTACGCGGTTCAATTCTTCGATCGCAAGGTATCGGAGTCACCTAGTGCAG,9200 fluorescence intensity (a.u.)
15,ACAGCTCTGCTCAACCTTGCCATCTCGATCAATCGATCCTCGGAGTCACCTAGTGCAG,11400 fluorescence intensity (a.u.)
16,AAACACACATGTTCTTTTGTTTTTTTTGTATGGGGACAAACGGAGTCACCTAGTGCAG,8170 fluorescence intensity (a.u.)
17,TGGCAAGAGGATATTTTATGGATTTCTTTGTTGATTTTATCGGAGTCACCTAGTGCAG,8660 fluorescence intensity (a.u.)
18,ACCAAACCCACGGCCTGGCCCACTGTCAGTACTAAGATAGCGGAGTCACCTAGTGCAG,9120 fluorescence intensity (a.u.)
19,CGCCGCCTTTTGTCTCCTTTTCCGGTTCTCTCCTCTGTCGCGGAGTCACCTAGTGCAG,9720 fluorescence intensity (a.u.)
20,GCCCCTCGCTTTTGATTAGTTACGTGCCGGTCCCCACTACCGGAGTCACCTAGTGCAG,9890 fluorescence intensity (a.u.)
21,TGTTCTTATCCAGTTGACTTTGTGTTTTTCGCCAACGAGGCGGAGTCACCTAGTGCAG,8500 fluorescence intensity (a.u.)

row,Sequence,binding signal
1,GGTGGAGGAGGTGGGCGGGGAAAGCGGCGACGTGAGGCGGCGGAGTCACCTAGTGCAG,14400 fluorescence intensity (a.u.)
2,GCGAATCATAACGACTACACGTTTCACAATTGGATCATTTCGGAGTCACCTAGTGCAG,15000 fluorescence intensity (a.u.)
3,CGGCCCCTCACACCACCACCTCCGCTCCAGCGCGCACACTCGGAGTCACCTAGTGCAG,9990 fluorescence intensity (a.u.)
4,CTCCGGCGCTCCACATCCCTCCACCGATTCTTCTGGTGACCGGAGTCACCTAGTGCAG,8400 fluorescence intensity (a.u.)
5,CCTTTTTCAGTTATGGTTTCCCTCAGGCTGGCAGTTGTGTCGGAGTCACCTAGTGCAG,8160 fluorescence intensity (a.u.)
6,CTCCTACTACCCAATACGACTACTACTAGTTTTCTTTCTTCGGAGTCACCTAGTGCAG,9470 fluorescence intensity (a.u.)
7,CTGCTTTTCATAGATTGAATGTTGCATACTGTATATGGGGCGGAGTCACCTAGTGCAG,8920 fluorescence intensity (a.u.)
8,GCTGCTTGTCTTCCACTTCTCTTCTGGAATGCATGTGATTCGGAGTCACCTAGTGCAG,8670 fluorescence intensity (a.u.)
9,AAATGAATGGATGGTGAAGTTTTTGTTCTTTGTATTTGAACGGAGTCACCTAGTGCAG,8840 fluorescence intensity (a.u.)
10,GCCTACTTAAATTACATTTCCGCACCCACACCACACACACCGGAGTCACCTAGTGCAG,11400 fluorescence intensity (a.u.)
11,CCGCTGCCTCCGCTCCGCCGCCATGCTCGCCCACTGTCTGCGGAGTCACCTAGTGCAG,9850 fluorescence intensity (a.u.)
12,GGTGGAGACGGGGTGGAGGAAGGCGACGAGGAGGTGCAGGCGGAGTCACCTAGTGCAG,8240 fluorescence intensity (a.u.)
13,CCTTCTCGGGCTTTGTTGTACGTATGCGTCTCGTGTTGGGCGGAGTCACCTAGTGCAG,8780 fluorescence intensity (a.u.)
14,TCCTACCTCCACTTCTTCTTTCTTCCACAAAGCCCATTCCCGGAGTCACCTAGTGCAG,8090 fluorescence intensity (a.u.)
15,TCTACTGTTATCCTTGCTATCGCGGTCTTTTACCCTCATGCGGAGTCACCTAGTGCAG,8500 fluorescence intensity (a.u.)
16,CCCTGTGCTTGTTGTTCATAGCAACTTCAATTCGATCACACGGAGTCACCTAGTGCAG,8310 fluorescence intensity (a.u.)
17,TTTTAGTTGTTGATTTCTTGATTAAATTTGTTAGTTTAACCGGAGTCACCTAGTGCAG,8460 fluorescence intensity (a.u.)
18,TGCAGTATCTGCCGTTCGTATCGCTGCGTTGAATCTTCCACGGAGTCACCTAGTGCAG,9720 fluorescence intensity (a.u.)
19,CGCTCGATTAGTGATTACCCGCTCAAACTCCCGCAACGTTCGGAGTCACCTAGTGCAG,9830 fluorescence intensity (a.u.)
20,GTCATAGTGTACCCTTCTGCAAGCTCCTCGTGTCCATCTGCGGAGTCACCTAGTGCAG,9580 fluorescence intensity (a.u.)
21,GGTAGATTTCTCTTTTTTTTTTCTCTCGTACGTAAGTTTCCGGAGTCACCTAGTGCAG,8650 fluorescence intensity (a.u.)

row,Sequence,binding signal
1,GTGAGTGTCCGCACTAGGGTGGGGAAGCTTCGTGGCGGGACGGAGTCACCTAGTGCAG,9270 fluorescence intensity (a.u.)
2,GTATTAGGCCATGCCTCTGGTATTCCTTTGCATTTCGATCCGGAGTCACCTAGTGCAG,8580 fluorescence intensity (a.u.)
3,TCTCGCTTGCAATGCTTATCCTATCAATCAATTCCTTCTTCGGAGTCACCTAGTGCAG,9080 fluorescence intensity (a.u.)
4,TCGCCCTTCGTCTCCGCCTCCGTCGCCTCCATCTCGCCGCCGGAGTCACCTAGTGCAG,12200 fluorescence intensity (a.u.)
5,GGTCGTTCATTTCTGCTCGTTGGATTAAAACAAAAATGTCCGGAGTCACCTAGTGCAG,8360 fluorescence intensity (a.u.)
6,CCGGTGAGCAATTCCAAACCTACTAGCTGATTTTGTCATTCGGAGTCACCTAGTGCAG,8160 fluorescence intensity (a.u.)
7,CGCGAGGACGCGGAGCTCGCTGAGGTTGGGGTTGTGGCGCCGGAGTCACCTAGTGCAG,8470 fluorescence intensity (a.u.)
8,ATATAAAGCTCGCCCCGTCTCCGCCTCGGCTTACCATTCACGGAGTCACCTAGTGCAG,11800 fluorescence intensity (a.u.)
9,TTCTAGCATTGCCCGCATTCATATATATGTTAATGAATCTCGGAGTCACCTAGTGCAG,8920 fluorescence intensity (a.u.)
10,TTTATGCGCCAGGTTGTTATCTCGCACACTTGTTCTTTAGCGGAGTCACCTAGTGCAG,9990 fluorescence intensity (a.u.)
11,TGGGAGACTCGGACTCGCGGCGTTTGTTTTCTTTCAGCTTCGGAGTCACCTAGTGCAG,9530 fluorescence intensity (a.u.)
12,GCTCGCCGGCGACCTCCTCCGACCACCTCGGCCACCACTCCGGAGTCACCTAGTGCAG,10900 fluorescence intensity (a.u.)
13,GATCTCGCTTCTGCCCCGTGGCCACATGCGAACATAACCACGGAGTCACCTAGTGCAG,8520 fluorescence intensity (a.u.)
14,AGTAATGATATTTTCTTGTCTTGGTCTTGGCGCCATTTACCGGAGTCACCTAGTGCAG,8050 fluorescence intensity (a.u.)
15,TCCTCCATTCCATTCCATTTCTCCTCACGCTACCGCCACACGGAGTCACCTAGTGCAG,11800 fluorescence intensity (a.u.)
16,TCATGCTGGCCTGTTCGAAACACTTCTTGTTATTGCTTGTCGGAGTCACCTAGTGCAG,9130 fluorescence intensity (a.u.)
17,CACTAAGTACTCAACTCTTCTTCAACGTGTCATTGCTCACCGGAGTCACCTAGTGCAG,8060 fluorescence intensity (a.u.)
18,CGTCTCACTCCTCTCTCTCTATCTCCTGTCCTGCCCTGCCCGGAGTCACCTAGTGCAG,8030 fluorescence intensity (a.u.)
19,TGGGATTTTGCTGCCTGGTTTGGATAACGCTAAATTAAATCGGAGTCACCTAGTGCAG,9820 fluorescence intensity (a.u.)
20,GTATCATTACTTGGTTTTTTTTTGACCAATTTGGCAGTCACGGAGTCACCTAGTGCAG,8090 fluorescence intensity (a.u.)
21,CGACGACGAGGTTTAGGTAGGGGTTCTTGGCTTGTCGGCGCGGAGTCACCTAGTGCAG,8070 fluorescence intensity (a.u.)

row,Sequence,binding signal
1,CTCTGCCCCACGTTGGCTCGCGTCCGCGGCCCATCTCCACCGGAGTCACCTAGTGCAG,12400 fluorescence intensity (a.u.)
2,ATGCATTTGTTTGTGCCAAATGCCTCGCCTTATCCTGTCACGGAGTCACCTAGTGCAG,8320 fluorescence intensity (a.u.)
3,GGCCTGCTTCCGCTTCTCCGAATGATCTTGGTTTTGGTTTCGGAGTCACCTAGTGCAG,9420 fluorescence intensity (a.u.)
4,CCGTTGACTCACCAATCGCCACACACATTGTCGACAAGTACGGAGTCACCTAGTGCAG,10600 fluorescence intensity (a.u.)
5,AATGGGACTTGGGCGATTGTGCATTAGATGTGTTTACTACCGGAGTCACCTAGTGCAG,8980 fluorescence intensity (a.u.)
6,TTTATGCTTTTCGTATCGTTTGCCCTTATTGTGCATTCGACGGAGTCACCTAGTGCAG,12700 fluorescence intensity (a.u.)
7,GGATTTTATATGTATTTATCAAAGTTTGGTATCAATCTAACGGAGTCACCTAGTGCAG,8920 fluorescence intensity (a.u.)
8,CCGGGGCCGGCAGCGGCGGGCGGGCGGGCTCGAGCGGTGGCGGAGTCACCTAGTGCAG,9020 fluorescence intensity (a.u.)
9,CCACTTGTACAAGGCGCTGGTCATTTGCATGTAGTAAAACCGGAGTCACCTAGTGCAG,9000 fluorescence intensity (a.u.)
10,TTTCGCAAGCCCATTTTCTGATTCATGTTCTGATTCTATGCGGAGTCACCTAGTGCAG,8110 fluorescence intensity (a.u.)
11,TTTGGTTGGATTGGATTGGATTGGATTGGCTGCTTCCCTGCGGAGTCACCTAGTGCAG,11900 fluorescence intensity (a.u.)
12,CATATATATCTCCAGTTTTTATATAGTGTAGCCACTTGTTCGGAGTCACCTAGTGCAG,9500 fluorescence intensity (a.u.)
13,ATTTCCAGCCTCCGCCGACACAACGCTACCGCAGACCCATCGGAGTCACCTAGTGCAG,9330 fluorescence intensity (a.u.)
14,GTCCAAACTTCAGCCACCATCGTTACCACATACGTGCATTCGGAGTCACCTAGTGCAG,10700 fluorescence intensity (a.u.)
15,CTTACCTGCTGCTGCTTGCCTTACGCCTACCACATCGCTCCGGAGTCACCTAGTGCAG,10600 fluorescence intensity (a.u.)
16,CGTATGCAGCAGTTTCATGGGCCTGGTTTCTGGCGTTACTCGGAGTCACCTAGTGCAG,8350 fluorescence intensity (a.u.)
17,CCGGATCACCAAGGACACCTCCACCTCGCTCTACACCATGCGGAGTCACCTAGTGCAG,8210 fluorescence intensity (a.u.)
18,TAGATCTCTTGCTTTGGGTGTTGTTTGCTCTAGGTGTTCTCGGAGTCACCTAGTGCAG,8250 fluorescence intensity (a.u.)
19,CCCTATAAACATCCGGATATCACACACATTCACACTCACACGGAGTCACCTAGTGCAG,10100 fluorescence intensity (a.u.)
20,TAAGTTAGCACCTGTTCTACCGCTTTGTTAGGGTAGGTTTCGGAGTCACCTAGTGCAG,12500 fluorescence intensity (a.u.)
21,ACCCTTTGGACTCTCGTCAGTCGTCGGAAACCCTCGACCACGGAGTCACCTAGTGCAG,8160 fluorescence intensity (a.u.)

# Pulled one by one from above (6):
row,Sequence,binding signal
11,TTTGGTTGGATTGGATTGGATTGGATTGGCTGCTTCCCTGCGGAGTCACCTAGTGCAG,11900 fluorescence intensity (a.u.)
20,TAAGTTAGCACCTGTTCTACCGCTTTGTTAGGGTAGGTTTCGGAGTCACCTAGTGCAG,12500 fluorescence intensity (a.u.)
7,GGATTTTATATGTATTTATCAAAGTTTGGTATCAATCTAACGGAGTCACCTAGTGCAG,8920 fluorescence intensity (a.u.)
18,TAGATCTCTTGCTTTGGGTGTTGTTTGCTCTAGGTGTTCTCGGAGTCACCTAGTGCAG,8250 fluorescence intensity (a.u.)
15,CTTACCTGCTGCTGCTTGCCTTACGCCTACCACATCGCTCCGGAGTCACCTAGTGCAG,10600 fluorescence intensity (a.u.)
16,CGTATGCAGCAGTTTCATGGGCCTGGTTTCTGGCGTTACTCGGAGTCACCTAGTGCAG,8350 fluorescence intensity (a.u.)
